Test results published in article PMC9268100, “Chelation of Theranostic Copper Radioisotopes with S-Rich Macrocycles: From Radiolabelling of Copper-64 to In Vivo Investigation” (Molecules, 2022).

Columns and labels:
[1] = Copper-64 radiolabelling (radiochemical incorporation by radio-UHPLC/radio-TLC); conditions: for labelling efficiency: 1 MBq/nmol; for fold lower molar activity required for quantitative incorporation: versus NODAGA-RGD (10 MBq/nmol)
Method: Ligand stock solutions were prepared in ultrapure water at 10^−3 M and were kept in the freezer when not used. Serial dilutions were performed to obtain solutions with ligand concentrations ranging from 1.0⋅10^−4 M to 1.0⋅10^−7 M in ultrapure water. Diluted solutions were freshly prepared from stock solutions before each experiment.
Radiolabelling were performed by adding [^64Cu]CuCl2 diluted in 0.05 M HCl (~2.5 MBq, 2 μL) to an aliquot of ligand solution (20 μL) mixed with 0.05 M HCl + 0.5 M sodium acetate 5:1 v/v ratio (98 μL and 20 μL, respectively). The final pH was equal to 4.5. In the experiments performed at pH 7, 1.0 M sodium phosphate buffer (100 μL) was used instead of sodium acetate buffer. The reaction mixtures were allowed to react for 10 min at RT or heated to 90 °C. Different ligand concentrations were screened, which correspond to the following molar activities: 2 × 10^−3 M (0.01 MBq/nmol), 2·10^−4 M (0.1 MBq/nmol), 2 × 10^−5 M (1 MBq/nmol), 8 × 10^−6 M (2.5 MBq/nmol), 4·× 10^−6 M (5 MBq/nmol), 2·× 10^−6 M (10 MBq/nmol), 8·× 10^−7 M (25 MBq/nmol), 4·× 10^−7 M (50 MBq/nmol), 2·× 10^−7 M (100 MBq/nmol), 8·× 10^−8 M (250 MBq/nmol) and 4·× 10^−8 M (500 MBq/nmol). All measurements were performed in triplicates.
The reaction progress was monitored by radio-ultra-high-performance liquid chromatography (UHPLC) or radio-thin layer chromatography (TLC). UHPLC was performed using an Acquity system (Waters, Italy) equipped with a reversed-phase C18 column (1.7 μm, 2.1 mm × 150 mm), an Acquity TUV detector (Waters, Milan, Italy) and a Herm LB 500 radiochemical detector (Berthold Technologies, Milan, Italy). 0.1% Trifluoroacetic acid in water (A) and acetonitrile (B) composed the mobile phase. The elution gradient included three stages. A was kept constant to 5% for 2 min; then a 5-min gradient, from 5 to 25% of A, was used; finally, the initial condition was restored in 2 min. A flow rate of 0.35 mL/min was employed. The [^64Cu]Cu^2+ complexes were retained at characteristic retention time (tR) equal to: ~6.9 min for [^64Cu][Cu(DO4S)]^2+, ~5.8 min for [^64Cu][Cu(DO3S)]^2+, ~6.8 min for [^64Cu][Cu(DO3SAm)]^2+, ~4.0 min for [^64Cu][Cu(DO2A2S)], ~6.8 min for [^64Cu][Cu(TRI4S)]^2+ and ~6.7 min for [^64Cu][Cu(TE4S)]^2+. Free [^64Cu]Cu^2+ eluted at tR~1 min.
TLC silica gel 60 F254 plates, developed using a mixture of 10% ammonium acetate and methanol (1:1 v/v ratio, pH 5.5), were used as stationary phase with DO2A2S, DOTA and NODAGA-RDG [47]. Under these conditions, the free [^64Cu]Cu^2+ remains at the baseline (retention factor, Rf = 0) while the [^64Cu]Cu^2+ complexes migrate with the liquid phase (Rf~0.6 for [^64Cu]Cu-NODAGA-RDG and Rf~0.4 for [^64Cu][Cu(DO2A2S)]). Silica gel 60 RP-18 F254S plates were employed as stationary phase and sodium citrate (1 M, pH 4) as eluent with DO4S, TRI4S and TE4S. Under these conditions, the unbound [^64Cu]Cu^2+ migrates with the solvent front (Rf = 1) while the [^64Cu]Cu^2+ complexes remain at the baseline (Rf = 0).
TLC plates were analyzed using a Cyclone Plus Storage Phosphor System (Perkin Elmer) after exposure to a super-resolution phosphor screen (Type MS, Perkin Elmer, Waltham, MA, USA). All the data were processed with OptiQuant software (version 5.0, Perkin Elmer Inc., Waltham, MA, USA).

[2] = Metal competition assay (2:1 metal-to-ligand excess of Zn^2+ or Ni^2+); conditions: 0.5 MBq/nmol, pH 4.5, RT, 10 min; for Labelling efficiency in the presence of Ni^2+: 2-fold molar excess of Ni^2+ with respect to the chelator; for Labelling efficiency in the presence of Zn^2+: 2-fold molar excess of Zn^2+ with respect to the chelator
Method: Competitions studies with DOTA were performed by labelling [^64Cu]Cu^2+ with chelators (0.5 MBq/nmol, pH 4.5 or pH 7, RT, 10 min) in the presence of a 1:1 DOTA-to-ligand ratio. Metal competition studies were performed by adding the ligand (0.5 MBq/nmol, pH 4.5, RT, 10 min) in a mixture containing [^64Cu]Cu^2+ and a 2:1 metal-to-ligand excess of Ni^2+ or Zn^2+. Competition assays among the chelators were carried out by mixing a solution containing equimolar amounts of chelators with [^64Cu]Cu^2+ (0.5 MBq/nmol, pH 4.5, RT). The reaction mixtures were analyzed by UHPLC, using the method described above.

[3] = 10 MBq/nmol, RT, pH 4.5, 10 min
[4] = molar activities >25 MBq/nmol, RT, pH 4.5, 10 min

With “1,4,7-tris[2-(methylsulfanyl)ethyl]-10-acetamido-1,4,7,10-tetraazacyclododecane [DO3SAm]” the labelling efficiency ([1]; RT, pH 7) was greater than 90%, the “molar activity up to which [^64Cu]Cu^2+ is quantitatively incorporated” value (from here on “molar activity up to which”) ([1]; 90 °C, pH 4.5, 10 min) was 2 MBq/nmol and the “[^64Cu]Cu^2+ complexation” value ([1]; highest ligand concentration 2 × 10^−3 M (0.01 MBq/nmol), RT, pH 4.5) was “not able to complex”.

For `CSCCN1CCN(CC(=O)O)CCN(CCSC)CCN(CC(=O)O)CC1` [DO2A2S, 1,7-bis[2-(methylsulfanyl)ethyl]-4,10,diacetic acid-1,4,7,10-tetraazacyclododecane], the “[^64Cu]Cu^2+ incorporation” value [1, 3] was ~ 82%, the “[^64Cu]Cu^2+ incorporation” value ([1]; 25 MBq/nmol, RT, pH 4.5, 10 min) was ~ 58% and the “molar activity up to which” value ([1]; 90 °C, pH 4.5, 10 min) was 50 MBq/nmol. For the same compound, the “[^64Cu]Cu^2+ incorporation” value ([1]; 100 MBq/nmol, RT, pH 7, 10 min) was 52 ± 8%, the “[^64Cu]Cu^2+ incorporation” value ([1]; 500 MBq/nmol, RT, pH 7, 10 min) was 9 ± 2% and the “molar activity up to which” value ([1]; RT, pH 4.5, 10 min) was 5 MBq/nmol. The “molar activity up to which” value ([1]; RT, pH 7, 10 min) was 50 MBq/nmol and the “[^64Cu]Cu^2+ incorporation” value ([1]; molar activity >100 MBq/nmol, RT, pH 4.5, 10 min) was “below 10%”.

With `CSCCN1CCNCCN(CCSC)CCN(CCSC)CC1` [DO3S, 1,4,7-tris[2-(methylsulfanyl)ethyl]-1,4,7,10-tetraazacyclododecane] the labelling efficiency ([1]; RT, pH 7) was greater than 90%, the “[^64Cu]Cu^2+ incorporation” value [1, 3] was 20% and the “molar activity up to which” value ([1]; 90 °C, pH 4.5, 10 min) was 2 MBq/nmol. The “fold lower molar activity required for quantitative incorporation” value ([1]; RT, pH 4.5, 10 min) was 1000 fold and the “[^64Cu]Cu^2+ incorporation” value [1, 4] was “no radiometal incorporation”.

With `CSCCN1CCN(CCSC)CCN(CCSC)CCN(CCSC)CC1` [DO4S, 1,4,7,10-Tetrakis[2-(methylsulfanyl)ethyl]-1,4,7,10-tetraazacyclododecane] the “[^64Cu]Cu^2+ incorporation” value [1, 3] was 40%, the “[^64Cu]Cu^2+ incorporation (labelling efficiency)” value ([1]; 25 MBq/nmol, RT, pH 7, 10 min) was 86 ± 14% and the “molar activity up to which” value ([1]; 90 °C, pH 4.5, 10 min) was 10 MBq/nmol. The “fold lower molar activity required for quantitative incorporation” value ([1]; RT, pH 4.5, 10 min) was 10 fold, the “molar activity up to which” value ([1]; RT, pH 7, 10 min) was 10 MBq/nmol and the “[^64Cu]Cu^2+ incorporation” value [1, 4] was “no radiometal incorporation”.

With `CSCCN1CCCN(CCSC)CCN(CCSC)CCCN(CCSC)CC1` [TE4S, 1,4,8,11-tetrakis[2-(methylsulfanyl)ethyl]-1,4,8,11-tetrazacyclotetradecane] the “[^64Cu]Cu^2+ incorporation” value ([1]; 25 MBq/nmol, 70 °C, pH 7, with labelling by-products) was 74%, the “[^64Cu]Cu^2+ incorporation (labelling efficiency)” value ([1]; 25 MBq/nmol, RT, pH 7, 10 min) was 24% and the “[^64Cu]Cu^2+ incorporation” value ([1]; highest considered chelator concentration, RT, pH 7, 10 min) was ~ 40%.

In the case of `CSCCN1CCCN(CCSC)CCN(CCSC)CCN(CCSC)CC1` [TRI4S, 1,4,7,10-tetrakis[2-(methylsulfanyl)ethyl]-1,4,7,10-tetrazacyclotridecane], the “[^64Cu]Cu^2+ incorporation (labelling efficiency)” value ([1]; 25 MBq/nmol, RT, pH 7, 10 min) is reported as ~ 75%, the “[^64Cu]Cu^2+ incorporation” value ([1]; 500 MBq/nmol, RT, pH 7, 10 min) is reported as 0% and the “molar activity up to which” value ([1]; RT, pH 7, 10 min) is reported as 10 MBq/nmol.

For `CSCCN1CCN(CC(=O)[O-])CCN(CCSC)CCN(CC(=O)[O-])CC1.[64Cu+2]` [[^64Cu][Cu(DO2A2S)]], the “Labelling efficiency in the presence of Ni^2+” value (from here on “Labelling efficiency … of Ni^2+”) [2] was 73 ± 3% and the “Labelling efficiency in the presence of Zn^2+” value (from here on “Labelling efficiency … of Zn^2+”) [2] was 64 ± 5%.

With `CSCCN1CCNCCN(CCSC)CCN(CCSC)CC1.[64Cu+2]` [[^64Cu][Cu(DO3S)]^2+] the “Labelling efficiency … of Ni^2+” value [2] was 91 ± 2% and the “Labelling efficiency … of Zn^2+” value [2] was 95 ± 2%.

With `CNC(=O)CN1CCN(CCSC)CCN(CCSC)CCN(CCSC)CC1.[64Cu+2]` [[^64Cu][Cu(DO3SAm)]^2+] the “Labelling efficiency … of Ni^2+” value [2] was 99 ± 2% and the “Labelling efficiency … of Zn^2+” value [2] was 90 ± 2%.

In the case of `CSCCN1CCN(CCSC)CCN(CCSC)CCN(CCSC)CC1.[64Cu+2]` [[^64Cu][Cu(DO4S)]^2+], the “Labelling efficiency … of Ni^2+” value [2] is reported as 100 ± 2% and the “Labelling efficiency … of Zn^2+” value [2] is reported as 100 ± 1%.

For `CSCCN1CCCN(CCSC)CCN(CCSC)CCN(CCSC)CC1.[64Cu+2]` [[^64Cu][Cu(TRI4S)]^2+], the “Labelling efficiency … of Ni^2+” value [2] was 100 ± 1% and the “Labelling efficiency … of Zn^2+” value [2] was 100 ± 1%.
